Results published in patent US20080227848A1.
These are yes or no findings as the source states them, for the method shown. In cells and extracts the contact can be indirect. Some entries that bind do so weakly or less than the wild type.

The chains behind the UniProt entries cited, without tags or fusion partners. Where a name states a change or a piece, a line headed by the entry shows the natural chain unless it says otherwise.
UniProt P19838: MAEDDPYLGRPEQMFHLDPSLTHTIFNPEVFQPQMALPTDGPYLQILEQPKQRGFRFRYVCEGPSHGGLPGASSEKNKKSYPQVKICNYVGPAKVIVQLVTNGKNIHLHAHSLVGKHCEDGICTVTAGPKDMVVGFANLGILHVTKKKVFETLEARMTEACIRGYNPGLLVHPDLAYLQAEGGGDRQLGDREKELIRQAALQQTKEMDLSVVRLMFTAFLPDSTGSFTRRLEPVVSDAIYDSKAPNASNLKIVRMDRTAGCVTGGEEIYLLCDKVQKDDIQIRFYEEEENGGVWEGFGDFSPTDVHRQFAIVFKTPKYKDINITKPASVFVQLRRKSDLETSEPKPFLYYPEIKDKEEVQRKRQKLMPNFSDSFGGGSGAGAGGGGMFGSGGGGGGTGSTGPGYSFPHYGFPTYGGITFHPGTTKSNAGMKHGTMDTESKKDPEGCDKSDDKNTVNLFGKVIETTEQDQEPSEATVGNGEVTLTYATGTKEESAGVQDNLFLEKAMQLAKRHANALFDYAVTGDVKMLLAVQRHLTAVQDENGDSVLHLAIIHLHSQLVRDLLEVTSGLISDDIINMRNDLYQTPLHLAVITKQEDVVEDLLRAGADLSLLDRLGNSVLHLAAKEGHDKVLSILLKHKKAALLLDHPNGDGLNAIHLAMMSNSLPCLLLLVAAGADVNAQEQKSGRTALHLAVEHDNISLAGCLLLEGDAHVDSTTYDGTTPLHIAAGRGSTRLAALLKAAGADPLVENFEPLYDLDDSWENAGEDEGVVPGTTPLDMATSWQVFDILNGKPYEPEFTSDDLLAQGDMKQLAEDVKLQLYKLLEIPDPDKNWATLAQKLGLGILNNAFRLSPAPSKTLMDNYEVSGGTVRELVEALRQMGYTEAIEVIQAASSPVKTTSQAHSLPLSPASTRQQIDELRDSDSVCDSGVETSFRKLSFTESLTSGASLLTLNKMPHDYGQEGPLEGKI
UniProt P25963: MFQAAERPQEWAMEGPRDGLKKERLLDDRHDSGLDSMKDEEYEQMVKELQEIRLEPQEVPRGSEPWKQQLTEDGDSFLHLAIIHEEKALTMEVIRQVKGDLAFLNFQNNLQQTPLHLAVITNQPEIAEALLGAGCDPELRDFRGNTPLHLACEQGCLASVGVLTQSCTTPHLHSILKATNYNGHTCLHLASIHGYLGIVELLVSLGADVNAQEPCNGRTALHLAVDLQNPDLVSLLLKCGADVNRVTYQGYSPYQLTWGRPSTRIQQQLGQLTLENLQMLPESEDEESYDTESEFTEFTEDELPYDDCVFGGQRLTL
UniProt Q9NWT6: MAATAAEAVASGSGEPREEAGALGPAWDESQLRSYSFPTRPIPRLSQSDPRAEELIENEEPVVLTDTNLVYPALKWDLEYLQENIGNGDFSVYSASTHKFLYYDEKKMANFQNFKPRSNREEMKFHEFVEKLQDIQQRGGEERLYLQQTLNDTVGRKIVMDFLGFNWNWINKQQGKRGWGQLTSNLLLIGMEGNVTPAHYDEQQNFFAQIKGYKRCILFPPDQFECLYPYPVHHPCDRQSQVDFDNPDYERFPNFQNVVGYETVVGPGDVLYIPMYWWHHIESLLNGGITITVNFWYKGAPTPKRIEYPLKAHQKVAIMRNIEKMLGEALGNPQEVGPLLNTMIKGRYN

Experiments:
[1] = molecular target: endogenous p105 protein (in cultured cells) (UniProt P19838); test: co-immunoprecipitation of endogenous proteins: anti-p105 IP, anti-FIH immunoblot
[2] = molecular target: endogenous IkBα (in cultured cells) (UniProt P25963); test: co-immunoprecipitation of endogenous proteins: FIH IP, anti-IkBα immunoblot
[3] = molecular target: endogenous p105 protein (in cultured cells) (UniProt P19838); test: co-immunoprecipitation from HeLa cell lysate: anti-p105 IP, anti-FIH immunoblot

binding [1]: binds
binding [2]: binds
binding [3]: binds
Substance: endogenous FIH (in cultured cells) (from UniProt Q9NWT6 2-349) (enzyme)
